The subject of data set [1] is AT4 receptor. Type of data set: binding, cow. As to conditions: adrenal medulla.
Data set [2] relates to AT4 receptor. The format is binding, cat. The conditions noted are these: whole adrenal.

Molecules are shown by their SMILES. Like-named read-outs stand apart in the source and are kept apart here.

For `CC[C@H](C)[C@H](NC(=O)[C@H](Cc1ccc(O)cc1)NC(=O)[C@@H](N)C(C)C)C(=O)N[C@@H](Cc1cnc[nH]1)C(=O)N1CCC[C@H]1C(=O)N[C@@H](Cc1ccccc1)C(=O)O` [AIV, Val1 Tyr2 Ile3 His4 Pro5 Phe6], the “125I-AIV binding (Bmax in Table 1)” value in data set [1] came out at 397.3 fmol/mg/prot; in data set [1] (listed as 125I-AIV) it was 397.3 ± 53.6 fmol/mg/prot; in data set [2], 199.6 fmol/mg/prot; in data set [2] (listed as 125I-AIV) it was 199.6 ± 19.7 fmol/mg/prot.

For the origin of these results see US5854388A, “Angiotensin IV peptides and receptor” (Washington State University Research Foundation, priority 1994, dated 1998).
